Measurements reported in PubChem BioAssay AID1439 (NMMLSC, 2008).
Out of some 220,000 compounds screened, about 770 (0.35%) were called active. The shares of active, inactive and inconclusive entries below differ from those in the screen. No stated cut-off is given here; in the data, active means binding response below about 49% or above about 150%; inconclusive means no clear call, values can overlap the other calls; inactive means in between.

The chains behind the UniProt entries cited, without tags or fusion partners.
UniProt P09471, whole entry, looked up: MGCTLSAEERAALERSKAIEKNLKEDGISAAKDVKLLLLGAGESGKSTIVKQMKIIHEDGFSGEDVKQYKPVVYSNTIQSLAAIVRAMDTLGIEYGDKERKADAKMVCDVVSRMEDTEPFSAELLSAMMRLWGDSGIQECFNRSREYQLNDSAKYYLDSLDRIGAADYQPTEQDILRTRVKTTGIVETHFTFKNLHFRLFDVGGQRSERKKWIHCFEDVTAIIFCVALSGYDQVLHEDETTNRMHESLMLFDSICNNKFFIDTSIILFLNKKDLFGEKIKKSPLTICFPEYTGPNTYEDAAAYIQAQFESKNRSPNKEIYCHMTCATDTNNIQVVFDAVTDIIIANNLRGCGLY

Molecular target: Guanine nucleotide-binding protein G(o) subunit alpha (Homo sapiens) (UniProt P09471)
Assay: RGS7-Galphao binding modulators, primary screen, biochemical, multiplexed bead flow cytometry (AID 1439);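 further: fluorescent Galphao held in activated GDP-AlF4 state binding bead-coupled RGS7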
Conditions: at 10 µM, actives lie on both sides

| SMILES | binding response (% of control) |
| --- | --- |
| COCCNC(=O)c1cc2cc(Cl)cc(Cl)c2oc1=O | inconclusive: 98.6% |
| Cc1ccc(NC(=O)COC(=O)CCNS(=O)(=O)c2ccc(C)c(C)c2)cc1 | inactive: 98.6% |
| CN1/C(=C\C=C2/SC(=S)N(CC(=O)O)C2=O)C(C)(C)c2ccccc21 | inconclusive: 109% |
| O=C(c1ccc2c(c1)OCO2)N1CCC2(CC1)Oc1ccc(Cl)cc1C(=O)C21CC(c2ccccc2)=NO1 (configuration not stated) | inconclusive: 53.3% |
| S=c1[nH]nc(COc2cccc3ccccc23)n1Cc1ccccc1 | inconclusive: -322% |
| COc1ccc(N2CCC(CNC(=O)Nc3ccc(Cl)cc3)C2)cc1 (configuration not stated) | inconclusive: 104% |
| CC(=O)C1C(c2ccc(O)cc2)NC(=O)NC1(O)C(F)(F)F (configuration not stated) | inconclusive: 104% |
| CC(C)(C)C1CCC(C(=O)Nc2cccnc2)CC1 (configuration not stated) | inconclusive: 73.2% |
| Cc1cc(-c2cc(C(=O)NCc3ccccc3)on2)nc(S(C)(=O)=O)n1 | inconclusive: 88.2% |
| CC(C1CC1)N(Cc1ccccc1)C(=O)NC(=O)c1ccccc1 (configuration not stated) | inconclusive: 89.5% |
| c1ccc(CN2CCC(Nc3ncnc4sccc34)CC2)cc1 | inconclusive: 129% |
| CCc1nnc(NS(=O)(=O)c2ccc(NC(=S)NC(=O)/C=C/c3ccc([N+](=O)[O-])cc3)cc2)s1 | inconclusive: 74.2% |
| CCCc1cc(=O)c2ccc(OCC(C)=O)cc2o1 | inconclusive: 87.7% |
| C#CCSc1nc(=O)c2cccnc2n1-c1ccc(C)cc1 | inconclusive: -159% |
| O=C(c1cccc([N+](=O)[O-])c1)N1CCCC(C(=O)N2CCCCCC2)C1 (configuration not stated) | inconclusive: 105% |
| CCN(CC)CCNS(=O)(=O)c1ccc(/C=C/C(=O)O)cc1 | inconclusive: 105% |
| COc1cccc(C(=O)NCC(=O)OCC(=O)Nc2ncc(Cl)cc2Cl)c1 | inconclusive: 96% |
| Cc1ccc2oc(/N=C(\N)NC(=O)C(C)(C)C)nc2c1 | inconclusive: 136% |
| Cc1cc(C)c2c(=O)n(CC(=O)Nc3ccc(Br)c(C)c3)sc2n1 | inconclusive: 123% |
| COc1ccc(-c2csc(NC(=S)NC(=O)/C=C/c3ccccc3)n2)cc1Br | inconclusive: 98.2% |
| CC(NC(=O)c1ccc2c(c1)OCCO2)c1ccc(S(N)(=O)=O)cc1 (configuration not stated) | inactive: 103% |
| Cc1ccc(CNC(=O)C(Cc2ccccc2)n2cccc2)cc1 (configuration not stated) | inconclusive: 88.8% |

| SMILES | binding response (% of control) |
| --- | --- |
| N#CNC(=Nc1cccc(Cl)c1)Oc1ccccc1 | inconclusive: 68.5% |
| COc1ccccc1C1=NOC(COc2ccc3c(C)cc(=O)oc3c2)C1 (configuration not stated) | inconclusive: 102% |
| CC(=O)N(C1=C(Cl)C(=O)c2ccccc2C1=O)C1CCCCC1 | inconclusive: -22.6% |
| O=C(Nc1ccc2nc(C3CC3)n(Cc3ccccc3)c(=O)c2c1)C1CC1 | inconclusive: 105% |
| COCCn1cnc2c(c1=O)c1nc3ccccc3nc1n2/N=C/c1cccc(OC)c1 | inconclusive: 89.8% |
| CC(C)COC(=O)Nc1nnc(SCc2ccccc2F)s1 | inactive: 97.2% |
| Cc1ccc(NC(=O)CN(C)CC(=O)Nc2ccc(N3CCOCC3)cc2)c(C)c1 | inactive: 102% |
| Cc1cccc(NC(=O)CSc2nnc(-c3ccc(S(=O)(=O)N4CCOCC4)cc3)n2C)c1 | inactive: 116% |
| N#Cc1c(-c2cccc(Br)c2)cc(-c2ccco2)[nH]c1=O | inconclusive: 98.1% |
| COC(=O)C1=C(C(=O)OC)[C@@H]2N(Cc3ccccc3)c3ccccc3[C@@]23C[C@@H](C(=O)OC)N(C(C)=O)C3=N1 | inconclusive: 105% |
| CC(C)Cc1ccc(S(=O)(=O)Nc2ccccn2)cc1 | inconclusive: 123% |
| CCN1CCN(Cc2ccc(NC(=O)c3cc(NC(=O)C(=O)c4c[nH]c5ccccc45)cc(OC)c3)cc2C(F)(F)F)CC1 | inconclusive: 80.4% |
| Cc1ccc(Nc2nc(-c3ccncc3)nc3ccccc23)cc1 | inconclusive: 119% |
| Cc1ccc(-n2ncc(Cl)c2C(=O)NC2CC2)cc1 | inactive: 105% |
| Cc1cc(NC(=O)CSc2ccc3nnc(CCNS(=O)(=O)c4ccccc4)n3n2)no1 | inactive: 107% |
| CC1(C)N([O-])c2cc([N+](=O)[O-])ccc2[N+]1=O | inconclusive: 194% |
| CSc1ccc(NC(=O)Nc2ccc(C(=O)NCC(=O)O)cc2)cc1 | inconclusive: 85.7% |
| CCOc1cc(N2CCOCC2)c(OCC)cc1NC(=O)c1ccc2ccccc2n1 | inconclusive: 101% |
| CC(=O)c1ccc(NC(=S)N(CCCN(C)C)Cc2ccccc2)cc1 | inconclusive: 29.2% |
| O=C(O)c1ccccc1S(=O)(=O)NCC(O)COC1CCCCC1 (configuration not stated) | inactive: 100% |
| Cc1cc(C)c(Nc2cc(S(=O)(=O)O)c(N)c3c2C(=O)c2ccccc2C3=O)c(C)c1 | inactive: 92.9% |
| CC1(C)Cc2nc3sc(C(N)=O)c(N)c3cc2CO1 | inconclusive: 108% |

| SMILES | binding response (% of control) |
| --- | --- |
| CC(C)c1ccc(/C=N/N2CCN(c3ccccn3)CC2)cc1 | inconclusive: 106% |
| CN1CCN(CCCN(Cc2cccs2)C(=S)Nc2ccc(Cl)cc2)CC1 | inconclusive: 99.4% |
| COc1ccc(CCNc2nnc(C)c(=O)[nH]2)cc1OC | inactive: 95.6% |
| C=CCNC(=S)/C(=C(/[O-])c1ccc([N+](=O)[O-])cc1)[n+]1ccccc1 | inconclusive: 95.7% |
| CCN1CCN(c2oc(-c3ccc([N+](=O)[O-])cc3)nc2C#N)CC1 | inconclusive: 95.4% |
| CCOc1ccc(Cl)cc1S(=O)(=O)n1cnc2ccccc21 | inactive: 99% |
| O=C(NCc1ccccc1)C(=O)Nc1nc(-c2ccccc2)cs1 | inconclusive: 84% |
| CC(C)(CC(=O)O)CC(=O)NCc1c(Cl)cccc1Sc1ccc(Cl)cc1 | inconclusive: -118% |
| CCOC(=O)c1sc(Nc2ccccc2Cl)nc1C | inconclusive: 72.3% |
| CC(=O)c1ccc(NC(=S)N2CCCC(C(F)(F)F)C2)cc1 (configuration not stated) | inconclusive: 107% |
| Cc1nnc(SCc2nc3sc4c(c3c(=O)[nH]2)CCCC4)n(N)c1=O | inconclusive: 72.8% |
| CC#CCN1c2ccccc2[C@]23C[C@@H](C(=O)OC)N(C(=O)OCC)C2=NC(C(=O)OC)=C(C(=O)OC)[C@H]13 | inconclusive: 94.6% |
| O=C(c1ccc2c(=O)n3c(nc2c1)CCCCC3)N1CCN(c2ccc(F)cc2)CC1 | inconclusive: 75.6% |
| O=C(c1ccc(Br)o1)N1CCc2ccccc21 | inactive: 96.1% |
| COc1ccc(-c2cc(-c3ccccc3)nc(SCC(=O)Nc3nccs3)c2C#N)cc1 | inactive: 113% |
| CC1=Nc2ccccc2N=C(NC(=O)/C=C/C(=O)O)C1c1ccccc1 (configuration not stated) | inconclusive: 109% |
| Cc1ccc(C(=O)Oc2ccc(/C=N/NC(N)=O)cc2)cc1 | inconclusive: 106% |
| Cn1c(=O)c2[nH]c(COc3ccc(C(C)(C)C)cc3)nc2n(C)c1=O | inconclusive: 89.8% |
| Cc1ccc(Cn2c(N/N=C/c3ccncc3)nc3c2c(=O)n(C)c(=O)n3C)cc1 | inconclusive: 206% |
| CCN(C(=O)COC(=O)c1cccc(NS(=O)(=O)c2ccc(F)c(F)c2)c1)C1CCS(=O)(=O)C1 (configuration not stated) | inactive: 107% |
| C/C(=N\Nc1cccc(Cl)c1)c1ccc(-n2ccnc2)cc1 | inactive: 107% |
| Cc1ccn2cc(CCNC(=O)C3CC=CCC3C(=O)O)nc2c1 (configuration not stated) | inconclusive: 105% |

Part of the list above, set out differently:
SMILES,binding response (% of control)
COc1ccc(CCNc2nnc(C)c(=O)[nH]2)cc1OC,inactive: 95.6%
CCN1CCN(c2oc(-c3ccc([N+](=O)[O-])cc3)nc2C#N)CC1,inconclusive: 95.4%
CCOc1ccc(Cl)cc1S(=O)(=O)n1cnc2ccccc21,inactive: 99%
CC(C)(CC(=O)O)CC(=O)NCc1c(Cl)cccc1Sc1ccc(Cl)cc1,inconclusive: -118%
CCOC(=O)c1sc(Nc2ccccc2Cl)nc1C,inconclusive: 72.3%
Cc1nnc(SCc2nc3sc4c(c3c(=O)[nH]2)CCCC4)n(N)c1=O,inconclusive: 72.8%
CC#CCN1c2ccccc2[C@]23C[C@@H](C(=O)OC)N(C(=O)OCC)C2=NC(C(=O)OC)=C(C(=O)OC)[C@H]13,inconclusive: 94.6%
O=C(c1ccc(Br)o1)N1CCc2ccccc21,inactive: 96.1%
CC1=Nc2ccccc2N=C(NC(=O)/C=C/C(=O)O)C1c1ccccc1 (configuration not stated),inconclusive: 109%
Cc1ccc(C(=O)Oc2ccc(/C=N/NC(N)=O)cc2)cc1,inconclusive: 106%
Cn1c(=O)c2[nH]c(COc3ccc(C(C)(C)C)cc3)nc2n(C)c1=O,inconclusive: 89.8%
Cc1ccc(Cn2c(N/N=C/c3ccncc3)nc3c2c(=O)n(C)c(=O)n3C)cc1,inconclusive: 206%
CCN(C(=O)COC(=O)c1cccc(NS(=O)(=O)c2ccc(F)c(F)c2)c1)C1CCS(=O)(=O)C1 (configuration not stated),inactive: 107%
C/C(=N\Nc1cccc(Cl)c1)c1ccc(-n2ccnc2)cc1,inactive: 107%
Cc1ccn2cc(CCNC(=O)C3CC=CCC3C(=O)O)nc2c1 (configuration not stated),inconclusive: 105%

Continued:

| SMILES | binding response (% of control) |
| --- | --- |
| Cc1cc(C)c(/C=N/NC(=O)c2nnn(-c3nonc3N)c2COc2ccc(F)cc2)c(C)c1 | inconclusive: 100% |
| CC(C)C(NC(=O)c1ccccc1)C(=O)NCCc1ccccc1 (configuration not stated) | inactive: 109% |
| Cc1ccc(CSc2ncccc2C(=O)O)cc1 | inactive: 99.5% |
| O=C(CCCCCCCCN1C(=O)c2ccccc2C1=O)N1CCOCC1 | inconclusive: 99.4% |
| CC(=O)NC1(C(F)(F)F)NC(=O)N(c2ccc(F)cc2)C1=O (configuration not stated) | inconclusive: 86.7% |
| Cn1c(C(=O)N2CCCC(C(=O)c3ccc(C(F)(F)F)cc3)C2)cc(=O)n(C)c1=O (configuration not stated) | inactive: 104% |
| Cc1ccc(NC(=O)c2cc3cccc([N+](=O)[O-])c3[nH]2)cc1 | inconclusive: 137% |
| CCOC(=O)c1sc(NC(=O)CSc2nc3c(c(=O)n2-c2ccc(F)cc2)SCC3)c(C(=O)OCC)c1C | inactive: 110% |
| CN1CCN(C(=S)Nc2cc(S(=O)(=O)N3CCOCC3)ccc2Cl)CC1 | inconclusive: 92.2% |
| Cc1cccc(C)c1OCC(O)CNC(C)C (configuration not stated) | inactive: 99.9% |
| O=C(c1cc(=O)c2ccccc2o1)N1CCN(c2cccc(Cl)c2)CC1 | inconclusive: 82.3% |
| CCC(=O)O/N=C(\N)c1ccc(Oc2cc(C)c(Cl)c(C)c2)c([N+](=O)[O-])c1 | inconclusive: 52.2% |
| Cn1c(=O)n(C)c2cc([N+](=O)[O-])c(N3CCN(C(=O)c4ccc(F)cc4)CC3)cc21 | inconclusive: 92% |
| CC(/C=N/NC(=O)C(O)c1ccccc1)=C\c1ccccc1 (configuration not stated) | inactive: 96.9% |
| COc1ccc(C(=O)COc2ccc(C)cc2NC(C)=O)cc1 | inconclusive: 91.3% |
| S=c1nc[nH]c2c1[nH]c1ccc(Cl)cc12 | inconclusive: 155% |
| N#Cc1c(-c2ccc(Cl)cc2)ccn2nc(C3CCCCC3)nc12 | inactive: 105% |
| N#Cc1c(SCC(=O)O)nc(N2CCOCC2)c2c1CCCC2 | inconclusive: 119% |
| CCOC(=O)CNC(=O)CN1C(=O)CC(c2ccccc2)S(=O)(=O)c2ccccc21 (configuration not stated) | inconclusive: 101% |
| Nc1nc(SCC(=O)Nc2cccnc2Cl)n[nH]1 | inconclusive: 101% |
| COc1ccc(Oc2ccc(C(F)(F)F)cc2N)cc1 | inconclusive: 75.2% |
